Patent US20040072993A1 (UNIVERSITY OF CONNECTICUT HEALTH CENTER, published 2004)
Results are given in words; binding and its absence hold for the method and conditions named. Some entries that bind do so weakly or less than the wild type.

Protein sequences, listed by entry. Tags and fused reporters are not part of them. Lines headed by an entry give the natural chain unless they say otherwise; changes in a name come on top. Residues count along the entry.
UniProt Q91ZX7: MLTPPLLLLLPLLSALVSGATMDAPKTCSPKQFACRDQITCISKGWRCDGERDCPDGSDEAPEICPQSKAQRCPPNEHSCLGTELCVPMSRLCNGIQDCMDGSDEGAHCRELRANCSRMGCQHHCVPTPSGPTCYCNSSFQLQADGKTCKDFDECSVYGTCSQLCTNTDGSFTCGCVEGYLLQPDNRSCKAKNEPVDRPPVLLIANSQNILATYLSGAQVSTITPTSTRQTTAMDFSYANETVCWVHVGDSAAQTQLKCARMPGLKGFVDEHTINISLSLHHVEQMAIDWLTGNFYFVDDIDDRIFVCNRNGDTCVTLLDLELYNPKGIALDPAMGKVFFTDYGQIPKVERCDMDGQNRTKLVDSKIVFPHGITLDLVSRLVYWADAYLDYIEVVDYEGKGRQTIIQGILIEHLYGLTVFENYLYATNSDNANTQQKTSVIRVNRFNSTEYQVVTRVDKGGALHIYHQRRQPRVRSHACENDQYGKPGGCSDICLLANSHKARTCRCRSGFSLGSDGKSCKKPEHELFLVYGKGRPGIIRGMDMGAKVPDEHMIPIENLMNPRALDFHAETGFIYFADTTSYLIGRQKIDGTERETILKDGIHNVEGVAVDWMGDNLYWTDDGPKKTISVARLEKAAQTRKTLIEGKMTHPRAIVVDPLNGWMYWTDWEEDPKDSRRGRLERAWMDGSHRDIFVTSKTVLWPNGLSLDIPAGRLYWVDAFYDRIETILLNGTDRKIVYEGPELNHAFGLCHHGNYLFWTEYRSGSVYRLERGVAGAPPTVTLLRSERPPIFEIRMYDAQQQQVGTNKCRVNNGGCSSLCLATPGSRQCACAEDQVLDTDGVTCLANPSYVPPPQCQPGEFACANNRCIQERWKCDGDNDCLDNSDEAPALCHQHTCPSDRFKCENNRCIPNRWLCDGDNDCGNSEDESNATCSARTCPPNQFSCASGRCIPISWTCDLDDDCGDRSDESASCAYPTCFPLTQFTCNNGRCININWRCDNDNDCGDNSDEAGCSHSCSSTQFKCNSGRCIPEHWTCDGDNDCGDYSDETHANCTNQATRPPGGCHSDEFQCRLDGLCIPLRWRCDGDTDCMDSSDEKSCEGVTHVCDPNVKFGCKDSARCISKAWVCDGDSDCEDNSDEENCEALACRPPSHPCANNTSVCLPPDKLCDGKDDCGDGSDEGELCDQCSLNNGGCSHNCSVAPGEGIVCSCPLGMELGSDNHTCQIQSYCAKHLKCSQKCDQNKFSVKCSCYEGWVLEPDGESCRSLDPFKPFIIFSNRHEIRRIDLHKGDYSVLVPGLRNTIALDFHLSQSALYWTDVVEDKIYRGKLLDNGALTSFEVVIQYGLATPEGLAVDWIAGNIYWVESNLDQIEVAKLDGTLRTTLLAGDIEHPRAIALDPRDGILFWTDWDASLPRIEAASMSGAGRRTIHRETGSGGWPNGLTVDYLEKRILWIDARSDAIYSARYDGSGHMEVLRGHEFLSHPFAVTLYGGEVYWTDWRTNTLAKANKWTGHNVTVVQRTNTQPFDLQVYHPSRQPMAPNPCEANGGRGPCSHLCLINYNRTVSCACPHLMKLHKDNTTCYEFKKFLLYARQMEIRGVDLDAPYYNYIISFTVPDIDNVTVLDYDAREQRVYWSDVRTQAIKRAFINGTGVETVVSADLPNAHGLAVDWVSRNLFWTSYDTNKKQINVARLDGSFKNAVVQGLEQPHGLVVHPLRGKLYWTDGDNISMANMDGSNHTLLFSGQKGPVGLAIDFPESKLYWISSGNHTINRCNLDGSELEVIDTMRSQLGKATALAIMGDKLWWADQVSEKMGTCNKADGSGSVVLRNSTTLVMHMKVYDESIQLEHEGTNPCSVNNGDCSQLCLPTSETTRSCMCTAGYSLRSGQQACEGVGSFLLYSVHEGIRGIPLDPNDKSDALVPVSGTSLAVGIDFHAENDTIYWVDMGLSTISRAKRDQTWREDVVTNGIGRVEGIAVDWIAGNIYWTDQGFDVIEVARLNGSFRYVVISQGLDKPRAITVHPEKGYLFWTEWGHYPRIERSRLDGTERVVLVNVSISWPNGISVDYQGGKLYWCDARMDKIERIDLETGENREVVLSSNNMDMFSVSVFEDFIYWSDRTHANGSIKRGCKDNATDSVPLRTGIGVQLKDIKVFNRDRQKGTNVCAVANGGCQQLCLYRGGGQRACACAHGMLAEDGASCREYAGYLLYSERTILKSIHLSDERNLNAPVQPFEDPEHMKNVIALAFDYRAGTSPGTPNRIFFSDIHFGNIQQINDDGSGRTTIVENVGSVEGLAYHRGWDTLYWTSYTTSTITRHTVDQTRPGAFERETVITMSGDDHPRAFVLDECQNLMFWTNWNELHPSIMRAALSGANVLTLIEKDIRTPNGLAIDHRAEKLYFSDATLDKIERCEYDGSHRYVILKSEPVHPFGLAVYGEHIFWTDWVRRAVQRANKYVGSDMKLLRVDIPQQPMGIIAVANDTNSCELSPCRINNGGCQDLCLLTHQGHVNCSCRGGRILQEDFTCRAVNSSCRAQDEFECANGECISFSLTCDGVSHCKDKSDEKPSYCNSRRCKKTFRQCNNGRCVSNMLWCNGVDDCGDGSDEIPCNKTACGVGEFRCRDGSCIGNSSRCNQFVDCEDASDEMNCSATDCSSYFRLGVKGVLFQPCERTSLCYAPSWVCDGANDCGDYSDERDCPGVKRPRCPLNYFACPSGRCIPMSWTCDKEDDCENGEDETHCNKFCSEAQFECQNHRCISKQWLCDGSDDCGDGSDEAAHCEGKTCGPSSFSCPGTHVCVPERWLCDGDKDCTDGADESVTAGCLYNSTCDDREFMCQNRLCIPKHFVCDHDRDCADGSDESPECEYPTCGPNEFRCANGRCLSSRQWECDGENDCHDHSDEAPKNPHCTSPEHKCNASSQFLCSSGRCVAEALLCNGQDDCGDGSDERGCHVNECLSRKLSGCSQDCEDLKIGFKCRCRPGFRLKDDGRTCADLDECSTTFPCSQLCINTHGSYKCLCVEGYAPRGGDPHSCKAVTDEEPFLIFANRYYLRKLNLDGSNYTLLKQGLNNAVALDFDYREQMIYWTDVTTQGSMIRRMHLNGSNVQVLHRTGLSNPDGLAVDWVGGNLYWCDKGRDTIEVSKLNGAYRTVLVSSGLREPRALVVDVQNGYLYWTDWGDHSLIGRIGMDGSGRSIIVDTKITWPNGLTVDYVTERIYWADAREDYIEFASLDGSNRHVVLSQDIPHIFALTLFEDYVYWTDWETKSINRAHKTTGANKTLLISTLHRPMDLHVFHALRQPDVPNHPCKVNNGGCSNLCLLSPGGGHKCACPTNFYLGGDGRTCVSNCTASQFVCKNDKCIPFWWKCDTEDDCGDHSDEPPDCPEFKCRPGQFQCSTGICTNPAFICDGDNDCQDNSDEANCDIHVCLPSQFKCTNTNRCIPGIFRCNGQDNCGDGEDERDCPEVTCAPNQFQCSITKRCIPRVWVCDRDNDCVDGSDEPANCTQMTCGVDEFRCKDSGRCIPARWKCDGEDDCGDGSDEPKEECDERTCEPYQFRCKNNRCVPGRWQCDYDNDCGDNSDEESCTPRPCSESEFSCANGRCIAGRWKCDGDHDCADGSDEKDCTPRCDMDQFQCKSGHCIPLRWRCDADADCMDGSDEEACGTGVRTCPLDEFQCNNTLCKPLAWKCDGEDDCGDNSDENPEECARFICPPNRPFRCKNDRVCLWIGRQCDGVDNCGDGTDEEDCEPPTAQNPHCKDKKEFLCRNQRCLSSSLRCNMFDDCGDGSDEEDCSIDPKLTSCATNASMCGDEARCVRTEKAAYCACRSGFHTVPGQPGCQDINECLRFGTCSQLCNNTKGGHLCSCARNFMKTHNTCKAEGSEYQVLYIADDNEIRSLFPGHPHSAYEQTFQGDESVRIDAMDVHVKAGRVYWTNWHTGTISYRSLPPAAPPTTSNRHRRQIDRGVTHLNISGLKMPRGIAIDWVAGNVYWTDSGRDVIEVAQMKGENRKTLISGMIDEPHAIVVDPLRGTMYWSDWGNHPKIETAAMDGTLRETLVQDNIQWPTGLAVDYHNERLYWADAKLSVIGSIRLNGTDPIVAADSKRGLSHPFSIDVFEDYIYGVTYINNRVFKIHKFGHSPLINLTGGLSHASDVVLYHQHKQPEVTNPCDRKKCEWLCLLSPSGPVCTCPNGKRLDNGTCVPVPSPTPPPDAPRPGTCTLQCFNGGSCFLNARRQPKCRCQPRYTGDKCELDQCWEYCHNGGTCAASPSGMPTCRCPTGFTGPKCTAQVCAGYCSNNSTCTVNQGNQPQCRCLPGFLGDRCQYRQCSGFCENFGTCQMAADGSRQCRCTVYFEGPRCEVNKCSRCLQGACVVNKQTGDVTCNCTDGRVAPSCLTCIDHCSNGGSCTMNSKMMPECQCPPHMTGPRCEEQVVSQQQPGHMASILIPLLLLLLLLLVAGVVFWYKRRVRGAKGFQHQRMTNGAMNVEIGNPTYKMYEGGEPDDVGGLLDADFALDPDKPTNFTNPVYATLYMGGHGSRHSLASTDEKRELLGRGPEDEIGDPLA
UniProt P14211, residues 18-416: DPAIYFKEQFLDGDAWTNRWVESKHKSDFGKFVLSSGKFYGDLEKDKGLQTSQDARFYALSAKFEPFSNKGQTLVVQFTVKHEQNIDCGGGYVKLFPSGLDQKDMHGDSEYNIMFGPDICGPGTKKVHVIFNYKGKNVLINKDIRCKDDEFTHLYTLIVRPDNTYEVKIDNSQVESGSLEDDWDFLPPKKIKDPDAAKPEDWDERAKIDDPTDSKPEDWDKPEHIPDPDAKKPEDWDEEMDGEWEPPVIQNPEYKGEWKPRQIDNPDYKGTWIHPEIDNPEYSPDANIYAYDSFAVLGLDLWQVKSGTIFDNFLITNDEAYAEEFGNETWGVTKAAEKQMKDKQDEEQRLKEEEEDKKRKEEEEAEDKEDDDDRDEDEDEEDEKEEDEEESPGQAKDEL

How the values were obtained:
[1] = biological target: T1, mouse alpha (2) macroglobulin receptor (mouse, UniProt Q91ZX7 20-4545); assay: summary of the re-presentation inhibition experiments
[2] = biological target: T1, mouse alpha (2) macroglobulin receptor; assay: confocal microscopy of RAW264.7 cells with FITC-labelled gp96
[3] = biological target: T1, mouse alpha (2) macroglobulin receptor; assay: confocal microscopy, FITC-labelled protein on CD11c+ cells
[4] = biological target: T1, mouse alpha (2) macroglobulin receptor; assay: summary of the affinity column, cross-linking and cell staining experiments
[5] = biological target: T1, mouse alpha (2) macroglobulin receptor; assay: flow cytometry, FITC-labelled HSP on mouse peritoneal macrophages, bone marrow-derived dendritic cells and RAW264.7 cells

| Molecule | binding [1] | binding [2] | binding [3] | binding [4] | binding [5] |
| --- | --- | --- | --- | --- | --- |
| calreticulin (from UniProt P14211 18-416) (ligand) | binds | – | – | – | – |
| heat shock protein gp96 (ligand, UniProt P08113 22-802, looked up) DDEVDVDGTVEEDLGKSREGSRTDDEVVQREEEAIQLDGLNASQIRELREKSEKFAFQAEVNRMMKLIINSLYKNKEIFLRELISNASDALDKIRLISLTDENALAGNEELTVKIKCDKEKNLLHVTDTGVGMTREELVKNLGTIAKSGTSEFLNKMTEAQEDGQSTSELIGQFGVGFYSAFLVADKVIVTSKHNNDTQHIWESDSNEFSVIADPRGNTLGRGTTITLVLKEEASDYLELDTIKNLVRKYSQFINFPIYVWSSKTETVEEPLEEDEAAKEEKEESDDEAAVEEEEEEKKPKTKKVEKTVWDWELMNDIKPIWQRPSKEVEEDEYKAFYKSFSKESDDPMAYIHFTAEGEVTFKSILFVPTSAPRGLFDEYGSKKSDYIKLYVRRVFITDDFHDMMPKYLNFVKGVVDSDDLPLNVSRETLQQHKLLKVIRKKLVRKTLDMIKKIADEKYNDTFWKEFGTNIKLGVIEDHSNRTRLAKLLRFQSSHHSTDITSLDQYVERMKEKQDKIYFMAGSSRKEAESSPFVERLLKKGYEVIYLTEPVDEYCIQALPEFDGKRFQNVAKEGVKFDESEKTKESREATEKEFEPLLNWMKDKALKDKIEKAVVSQRLTESPCALVASQYGWSGNMERIMKAQAYQTGKDISTNYYASQKKTFEINPRHPLIRDMLRRIKEDEDDKTVMDLAVVLFETATLRSGYLLPDTKAYGDRIERMLRLSLNIDPEAQVEEEPEEEPEDTSEDAEDSEQDEGEEMDAGTEEEEEETEKESTEKDEL | – | binds | binds | binds | binds |
